Measured values published in article PMC3541368.
No constants are given. Whether binding was seen depends on the method and setting. Binding seen in cells or lysates may run through a third protein. Binding can be weak; no strength is given.

Chains of the proteins cited; added tags and fusions are not shown. Lines headed by an entry give the natural chain unless they say otherwise; changes in a name come on top.
UniProt Q02078: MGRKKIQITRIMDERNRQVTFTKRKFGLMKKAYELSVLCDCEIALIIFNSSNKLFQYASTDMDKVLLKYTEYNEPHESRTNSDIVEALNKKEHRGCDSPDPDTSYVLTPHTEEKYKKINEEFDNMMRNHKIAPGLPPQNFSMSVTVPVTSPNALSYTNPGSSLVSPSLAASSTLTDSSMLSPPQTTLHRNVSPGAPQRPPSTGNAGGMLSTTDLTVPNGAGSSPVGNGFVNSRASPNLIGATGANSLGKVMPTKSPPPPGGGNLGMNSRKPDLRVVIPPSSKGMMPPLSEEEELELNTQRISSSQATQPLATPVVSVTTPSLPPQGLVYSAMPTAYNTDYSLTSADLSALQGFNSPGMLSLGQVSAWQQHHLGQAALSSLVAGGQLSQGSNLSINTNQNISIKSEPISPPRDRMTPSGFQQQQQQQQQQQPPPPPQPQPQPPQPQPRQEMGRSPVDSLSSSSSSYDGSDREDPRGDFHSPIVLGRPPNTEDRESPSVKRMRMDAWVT

Columns and labels:
Test in all cases: co-IP; anti-M2 FLAG beads, FLAG-Gβ2/mutants and MEF2-expressing cells; immunoblot quantified (Kodak Imager), n = 3
[1] = target: FLAG-Gβ2 ΔWD6 (human) (UniProt P62879)
[2] = target: FLAG-Gβ2 ΔWD5 (human) (UniProt P62879)
[3] = target: FLAG-Gβ2 ΔWD1 (human) (UniProt P62879)
[4] = target: FLAG-Gβ2 ΔWD7 (human) (UniProt P62879)
[5] = target: FLAG-Gβ2 ΔWD4 (human) (UniProt P62879)
[6] = target: FLAG-Gβ2 ΔWD2 (human) (UniProt P62879)
[7] = target: FLAG-Gβ2 ΔWD3 (human) (UniProt P62879)

Measured: binding

MEF2A in 'FLAG-Gβ2/mutants and MEF2-expressing cells' (from UniProt Q02078 1-507)
binds: all assays above
